Holding throughout (experiment): pull-down
The target in assay [1] is His-OsSRT1 (FL), full length rice sirtuin OsSRT1 (Oryza sativa indica) (UniProt B8ARK7).
Assay [2] concerns the target OsSRT1 C terminus with CC region (ΔN1: 45-483) (Oryza sativa indica) (UniProt B8ARK7).
The target of assay [3] is OsSRT1 N-terminus alone (ΔC2: 1-45) (Oryza sativa indica) (UniProt B8ARK7).
For assay [4], the target named is OsSRT1 catalytic core region (CC: 45-255) (Oryza sativa indica) (UniProt B8ARK7).
The target in assay [5] is His-OsSRT1 (FL), full length rice sirtuin OsSRT1 (Oryza sativa indica) (UniProt B8ARK7). This is another data set of the same source.

The chains behind the UniProt entries cited, without tags or fusion partners. Where a name states a change or a piece, a line headed by the entry shows the natural chain unless it says otherwise.
UniProt B8ARK7: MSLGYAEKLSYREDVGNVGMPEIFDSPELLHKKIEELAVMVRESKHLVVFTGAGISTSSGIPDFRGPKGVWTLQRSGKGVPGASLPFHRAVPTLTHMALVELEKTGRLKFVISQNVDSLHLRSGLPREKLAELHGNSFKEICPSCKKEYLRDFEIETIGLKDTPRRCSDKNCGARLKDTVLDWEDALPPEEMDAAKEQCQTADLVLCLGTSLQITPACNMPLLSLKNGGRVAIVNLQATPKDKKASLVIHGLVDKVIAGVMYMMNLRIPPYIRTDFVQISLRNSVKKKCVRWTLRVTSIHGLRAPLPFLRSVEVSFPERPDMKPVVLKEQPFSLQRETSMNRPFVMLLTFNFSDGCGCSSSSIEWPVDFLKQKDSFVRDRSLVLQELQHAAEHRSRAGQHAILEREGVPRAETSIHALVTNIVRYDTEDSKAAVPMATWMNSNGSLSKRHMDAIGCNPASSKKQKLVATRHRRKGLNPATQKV
UniProt P09874: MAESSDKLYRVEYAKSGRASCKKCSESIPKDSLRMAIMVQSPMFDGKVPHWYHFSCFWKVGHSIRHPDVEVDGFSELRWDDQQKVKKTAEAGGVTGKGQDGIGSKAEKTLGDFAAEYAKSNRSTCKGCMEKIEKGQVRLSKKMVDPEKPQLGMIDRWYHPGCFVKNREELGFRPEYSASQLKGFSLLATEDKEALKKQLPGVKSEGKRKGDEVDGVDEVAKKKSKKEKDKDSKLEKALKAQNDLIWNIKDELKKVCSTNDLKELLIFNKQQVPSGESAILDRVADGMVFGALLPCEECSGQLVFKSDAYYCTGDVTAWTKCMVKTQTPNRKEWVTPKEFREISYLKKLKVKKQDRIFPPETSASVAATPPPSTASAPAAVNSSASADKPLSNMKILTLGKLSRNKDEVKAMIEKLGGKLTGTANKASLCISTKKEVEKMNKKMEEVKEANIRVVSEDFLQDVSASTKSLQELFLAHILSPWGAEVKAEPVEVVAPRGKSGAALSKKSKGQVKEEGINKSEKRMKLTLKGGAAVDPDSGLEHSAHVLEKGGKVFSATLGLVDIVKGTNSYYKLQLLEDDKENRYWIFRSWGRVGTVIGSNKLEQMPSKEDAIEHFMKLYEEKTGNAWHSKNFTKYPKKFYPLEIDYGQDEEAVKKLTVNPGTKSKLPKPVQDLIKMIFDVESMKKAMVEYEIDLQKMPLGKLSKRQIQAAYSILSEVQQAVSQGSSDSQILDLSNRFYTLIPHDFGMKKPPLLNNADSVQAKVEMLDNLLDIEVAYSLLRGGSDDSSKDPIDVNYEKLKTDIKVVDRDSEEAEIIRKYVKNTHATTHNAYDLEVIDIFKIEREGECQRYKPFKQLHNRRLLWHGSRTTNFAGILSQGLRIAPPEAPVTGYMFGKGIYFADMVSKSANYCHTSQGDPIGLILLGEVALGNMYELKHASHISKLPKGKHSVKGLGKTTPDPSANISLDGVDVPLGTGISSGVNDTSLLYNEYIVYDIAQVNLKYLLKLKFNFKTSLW

Where two headings read alike, the source gives them in different places. These are yes or no findings as the source states them, for the method shown. Binding calls can cover weak binding; strength is not graded here. For part of these data: In cells and extracts the contact can be indirect.

On to “recombinant PARP1 (rPARP1, ab123834) (from UniProt P09874 1-1014) (enzyme)”, for which the binding result in assay [1] is “binds”; in assay [2], “binds”; in assay [3] it was “binds weakly”; in assay [4], “binds”.

B1: Ku70 from nuclear extract of rice leaves (protein, UniProt Q7F1M0 1-624)
chain: MDLDPEGLFRDDSDEDDDNVQEREANKEMVVYLIDASPKMFTPATKADEKEETHFHTIVNCITHALKTQIIGRSYDEVAICFFNTKEKKNLQELAGVYVYNVTEREPLDRPDARLIKEFSCIEDSFMSNIGSRYGITSGSRENTLYNALWVAQALLRKGSVKTVSKRIVIFTNEDDPFGGLTGAVKTDMIRTTIQRARDAQDLGLSIELLPLSRPDEEFNMSLFYADLIGLEGDEIVDYLPSSGEKLEDMTNQLKKRMMKKRKVKTLAFAITNDVCIEVNTYALIRSTTPGAITWLDSISNLPLKAERSFICNDTGALIQDPQKRFQVYNDKIVKFSTRELSDVKRVSSHHLRLLGFKPLDYLKDYHNLRPSTFIYPSDEQIFGSTRVFVALHSSMRRLGRFALAFYGNPTRPQLVALIAQEEVTSAGGQIEPPGIHMIYLPYSDDVRYPEEVHLTSDDAPRATDEQIKKASNLLRRIDLKNFSVCQFSNPALQRHYGILEALALGEDEMPDVKDETLPDEEGLARPVVVKAVEEFKASVYGENYDQEEAEAAAAKAGASKKRKALTDAAAEKSAAHNWAELADTGKLKDMTVVDLKSYLSAHGLPVSGKKEALVSRILTHLGK
As to B1, in assay [5], the binding result is “binds”.

B2: Ku80 from nuclear extract of rice leaves (protein, UniProt Q75IP6 1-688)
chain: MARNKEALVLLLDVGPSMHGVLQEVENICSTLVHKKLVYNRSDEIGVVLFGTKETSNELAKELGGYKHVVVARDIKVVDEETTNALQNLPRGTSPGDFLDAIVVGLDMLIRKFGNIKGKQRMCLVTDAQHPLRDPPQGTKKDQVDTIADQMKRHEIKMDCIIFRESGVRHNAVMDENDQLLYHFRERSVTKVVHVDSPTSLLGALRTRNVLPVTVFRGDLEVSSSFKIKVWVYKKTSEEKFPTLKKYSDKAPASDKFASHEVKVDYEYKSVLEPDTVVPPDQRIKGYLYGPQVVPISSAEWEAVKFKPEKGVKLLGFTDRSSISRHYFMKDVFSFVPEPGNTKAVAAVSALARAMSEMNKVAILRCVWRQGQGNVALGVLTPNISSAKNVLDSFYFNILPFAEDIREFQFRSFSSLPSSSQPTKEQQEAADNLVKMLDLAPPGREEILKPDFTPNPMLERFYRYLDLKSKQPDANVPPLDKCLKKITEPDPDVIDYQAPLIKKLGNVFELKENPKKKKARTQDRLTYTGADDQAKLLEEPSAEKVGVSEALYPPKKKAGEIGDHNPVQDFEAMLTQRSSSTWVQTAIEEMQKYITALIQDSCDRDNHQKALECLVALRKACIIEQEPNEYNGFVTKLCQKFRPAGDKIFLQLLSSKKASLISKEEAPDSDVTEEMARNFCLKPEPSSQ
Consider B2, for which the binding entry in assay [5] is listed as “binds”.

Source of the values: paper doi:10.1101/2021.11.05.467508.
